Experimental data taken from patent publication US20080050819A1, “Constructs for Marker Excision Based on Dual-Function Selection Marker” (BASF Plant Science GmbH, priority 2004, published 2008).
Some of these results come from one statement about several compounds together.

System: dao1 transgenic A. thaliana
Assay: Growth of dao1 (DAAO) transgenic A. thaliana on D-amino acid media
Type: in vivo, Arabidopsis thaliana
Conditions: seeds sown on medium, FIG. 4c,d
Description: FIG. 4 D-amino acid dose responses of dao1 transgenic and wild-type A. thaliana. • (a-d) Growth of dao1 transgenic line 3:7 (white), 10:7 (light gray), 13:4 (gray) and wild-type (black) plants, in fresh weight per plant, on media containing various concentrations of D-serine, D-alanine, D-isoleucine and D-valine in half-strength MS with 0.5% (wt/vol) sucrose and 0.8% (wt/vol) agar. Different concentration ranges were used for different D-amino acids. The plants were grown for 10 d after germination under 16 h photoperiods at 24° C.; n=10±s.e.m., except for plants grown on D-isoleucine, where smaller Petri dishes were used, (n=6±s.e.m.). • (e-l) Photographs of dao1 transgenic line 10:7 (e-h) and wild-type plants (i-l), grown for 10 d on the highest concentrations of the D-amino acid shown in the respective graphs above. All pictures have the same magnification. FW, fresh weight.
Therefore, plants containing the construct were tested as described above on two sets of media, one containing D-isoleucine and the other containing D-valine at various concentrations, to assess whether DAAO could also be used as a counter-selection marker. Unambiguous counter-selection selection was achieved when seeds were sown on either D-isoleucine or D-valine at concentrations greater than 10 mM (FIG. 4 c,d).

| Structure (SMILES) | concentration for unambiguous counter-selection |
| --- | --- |
| CC[C@@H](C)[C@@H](N)C(=O)O [D-isoleucine] | greater than 10 mM |
| CC(C)[C@@H](N)C(=O)O [D-valine] | greater than 10 mM |
